# Some results were stated once for a whole list of compounds, not compound by compound.
# B1: SSE-1: synthetic super-enhancer ID1101_ID2904_ID0109_ID4328, SEQ ID NO: 64 (nucleic acid)
# DNA: GTGAGTGTGACTCACATGCTGGCATCAGAGCCCCTCTTAGAGCTTAGAACACTGGGCCTCTGTCAGGCAAAGAAAAGGAGTCCCTATGAATAGCCATCTCCACAAATAGCAGTTACTGTCACTTCTTAAAAGACACAAGCATGGCTGGAGACCGGCACTGTGCATGTTCTTGGGAAAAAGTGGTATTTAATGAAGGCGCTTTGAGCTGAATCAAAGAGCCTCATTCTTCTGAAAGTCCTTCTTCCTAGTCTCTGCATCCGGCTCCTATCAAAGGAAATCCACAGCTTTGGCTTTTCGTTGCTGTTGTCATGGAAATCGTTGAAATTGGATCCTGAGGAGAATGTCACCACCTCTTTGACAATAACTAGCTTTCAGAGCTGAACACAGTGAATCTGGATACTGTGTATATGTTTAAATGAGTTAGGAAATGACATCACATTATTTATTTCTTCTTTTGTGACTTAGTAAATTGACTTGGCCTACAATCTATTCTCCATAGTCATCAGAGTTTCTTTAAAGGCACGGTTCAGACAATGGCACCCTCTGTTCCAAACCCTCCAGGGCTTCCTATTTCACTTAGCATAAAAACCAAAGTCCTCACAATGACCGACAAGTCTTCACACAATGTGCCCCTTCATTG
# B2: SSE-2: synthetic super-enhancer ID0109_ID4328_ID0876_ID2339, SEQ ID NO: 65 (nucleic acid)
# DNA: GAAATTGGATCCTGAGGAGAATGTCACCACCTCTTTGACAATAACTAGCTTTCAGAGCTGAACACAGTGAATCTGGATACTGTGTATATGTTTAAATGAGTTAGGAAATGACATCACATTATTTATTTCTTCTTTTGTGACTTAGTAAATTGACTTGGCCTACAATCTATTCTCCATAGTCATCAGAGTTTCTTTAAAGGCACGGTTCAGACAATGGCACCCTCTGTTCCAAACCCTCCAGGGCTTCCTATTTCACTTAGCATAAAAACCAAAGTCCTCACAATGACCGACAAGTCTTCACACAATGTGCCCCTTCATTGGAGCAGGCAGTCATTTGGTTCCCTTCTCTGAATGCATTGGCTCTGATCCACGGCGCCTCAGGAAGTGAAAGGGAGCAGGCAGTGAGGCCAAGCCATGAATGTTGGGCCCTTTTCTTAGAAAACAAAGGGTTCACTTTAGGCTAGGAGGAAACATCCGGGGGTCGGCGGAACTGAGTCTCCTTTGTGGAGCCCCTCATTTGCATGATAAACCCCGGGGACAAAGTGTGTTCTTGTTACTTGGACTGTTTCTTGGAAACTGCTGCTACCTGGAGCGAGTGAACACAGGGCAAGTATTCTCGCCCACAGCAACGTGTCATTGA
# B3: SSE-3: synthetic super-enhancer ID0876_ID2339_ID1737_ID0663, SEQ ID NO: 66 (nucleic acid)
# DNA: GAGCAGGCAGTCATTTGGTTCCCTTCTCTGAATGCATTGGCTCTGATCCACGGCGCCTCAGGAAGTGAAAGGGAGCAGGCAGTGAGGCCAAGCCATGAATGTTGGGCCCTTTTCTTAGAAAACAAAGGGTTCACTTTAGGCTAGGAGGAAACATCCGGGGGTCGGCGGAACTGAGTCTCCTTTGTGGAGCCCCTCATTTGCATGATAAACCCCGGGGACAAAGTGTGTTCTTGTTACTTGGACTGTTTCTTGGAAACTGCTGCTACCTGGAGCGAGTGAACACAGGGCAAGTATTCTCGCCCACAGCAACGTGTCATTGACAACGTTTTTGGCAGATGCAGCTCTTTCTGAACAGTAAGTCATTGTTGAGTGACATGAATAGGACGAGAGCTACAGAAAATGAAGGTTTCAAAAGATTGTCTAAAACAAAAGTCCTTTCAGTCCCGTATTCAGAGTTATAAATTCCGATTAGCCAAGGAAGCTCTGAGTCTAAATACCAGCAAAGCTCAGCCCCTGCAAGTGGGGACGAATTATTTGAAAGGTCATCCTAGAGACACTGAACAAAGGGCCTCTAGCAGCT
# B4: SSE-4: synthetic super-enhancer ID1737_ID0663_ID2706_ID3547, SEQ ID NO: 67 (nucleic acid)
# DNA: CAACGTTTTTGGCAGATGCAGCTCTTTCTGAACAGTAAGTCATTGTTGAGTGACATGAATAGGACGAGAGCTACAGAAAATGAAGGTTTCAAAAGATTGTCTAAAACAAAAGTCCTTTCAGTCCCGTATTCAGAGTTATAAATTCCGATTAGCCAAGGAAGCTCTGAGTCTAAATACCAGCAAAGCTCAGCCCCTGCAAGTGGGGACGAATTATTTGAAAGGTCATCCTAGAGACACTGAACAAAGGGCCTCTAGCAGCTCCAATGCCAAAGCAGTTTACATTTTACAGATGCCATGGCAACCGTCAGGAAGTTACCCTGTATGGTCTAAGAGGGGGAGGAACCCTCAGTTCCGGGAATTGCCCGCCCCTTTCCCGGAAACTCATGAATAATCCACCCCGTTCCCCCTTAACAAAAGCCACCTCCTCCCTCCTGAAAGGCACCATTGGTCACCAAAACAAGTCCCCTTTGTCCTCCACCGCAGCTGGAGCCTGGGCCTTCCATCTCCTGGGGGCCAATAAAACCCCAGATCAGCCAATCCTCCCTCCCTGGCTCTGTCA
# B5: SSE-5: synthetic super-enhancer ID2706_ID3547_ID3548_ID3146, SEQ ID NO: 68 (nucleic acid)
# DNA: CCAATGCCAAAGCAGTTTACATTTTACAGATGCCATGGCAACCGTCAGGAAGTTACCCTGTATGGTCTAAGAGGGGGAGGAACCCTCAGTTCCGGGAATTGCCCGCCCCTTTCCCGGAAACTCATGAATAATCCACCCCGTTCCCCCTTAACAAAAGCCACCTCCTCCCTCCTGAAAGGCACCATTGGTCACCAAAACAAGTCCCCTTTGTCCTCCACCGCAGCTGGAGCCTGGGCCTTCCATCTCCTGGGGGCCAATAAAACCCCAGATCAGCCAATCCTCCCTCCCTGGCTCTGTCATCCAAACACTCCCCTGCAACAGATGTACACACAGAGCCCATTGTTTTCTCTAGAAATGTAAACTGCACGTCACAGTTACTCCATACACACCACAAACAGACTCCCTTTGTTCTCAGGATATGTGTTGACACAAGAATATGTCATCCTCTCAGCTCCAGACTGAAAGAGATGGGTGTGTGGGAGTGGGGGAAGCTGAGCTCCAGGCAGACAGCACAGAGCCGCCTTGTCCAACCCAGCCAGGTGCCATGGCAACCAACAAAGGCCCCATTGTCCCGTGTCTGCTGGGCCTTCCTGAGGCTCTGGGGTCAGAGTCCCGGTT
# B6: SSE-6: synthetic super-enhancer ID3548_ID3146_ID4310_ID4428, SEQ ID NO: 69 (nucleic acid)
# DNA: TCCAAACACTCCCCTGCAACAGATGTACACACAGAGCCCATTGTTTTCTCTAGAAATGTAAACTGCACGTCACAGTTACTCCATACACACCACAAACAGACTCCCTTTGTTCTCAGGATATGTGTTGACACAAGAATATGTCATCCTCTCAGCTCCAGACTGAAAGAGATGGGTGTGTGGGAGTGGGGGAAGCTGAGCTCCAGGCAGACAGCACAGAGCCGCCTTGTCCAACCCAGCCAGGTGCCATGGCAACCAACAAAGGCCCCATTGTCCCGTGTCTGCTGGGCCTTCCTGAGGCTCTGGGGTCAGAGTCCCGGTTTTGTCCTGCCTTTGAGAACACTGGAAGGGCACTGAAGGCTGACCAGCATGCACCTCACCCCACCTCCTCTCTGTCTCATCCTCAGCCATCTAAGCGGGAGACTCATCAGGCTTAAATTCTCATTCTTATCCAAGATTCTTCTGCTTCAAATGAGTCTAAATGGAGATCCTCCCATAAAGGGAGTTCTGTTTGGGCTTCCCTTGGAAGTCCATTGAAAGCGTTTCACATTTCAATGCTTCTTTACATTCTCCTCTAGAATGAATCTGGAAGGGCCATTTCATTCCAGCCCTATCAGATTTACTACTTCCTCCTGT
# B7: SSE-7: synthetic super-enhancer ID4310_ID4428_ID0785_ID3836, SEQ ID NO: 70 (nucleic acid)
# DNA: TTGTCCTGCCTTTGAGAACACTGGAAGGGCACTGAAGGCTGACCAGCATGCACCTCACCCCACCTCCTCTCTGTCTCATCCTCAGCCATCTAAGCGGGAGACTCATCAGGCTTAAATTCTCATTCTTATCCAAGATTCTTCTGCTTCAAATGAGTCTAAATGGAGATCCTCCCATAAAGGGAGTTCTGTTTGGGCTTCCCTTGGAAGTCCATTGAAAGCGTTTCACATTTCAATGCTTCTTTACATTCTCCTCTAGAATGAATCTGGAAGGGCCATTTCATTCCAGCCCTATCAGATTTACTACTTCCTCCTGTAAGAATGAACTGGGCCCAGCTGGGCATTTGCATCAAAGTGCCTCACCAGAGTTCCCAGCTGCTCTGGCAGAGTGCCCAGGCTTGCCCCAGAGCCCAAACAGAATGCTCTTTGAGATGCCTCTGGTTTTCATACCCTTCCAGGGGAGCAGTTTCCTGGCTGTGTCGTCAGATACTGTGGTTTACGCTGTTCCGGAGTCTGGAGGTCTGTGTGCCTTTGATCTCTTTCCCAACTAATTTGCACAGCTGCTGTGGAGGCCCTCATGAATGACCTCTTTCTTTCCTTTCT
# Tested on: GSC7 cells
# Assay: Flow cytometry of mNGreen reporter in GSC7
# Assay type: cell-based, human
# Details: Nanoglo DLR assay and flow cytometry
# Method: Cells were seeded at the required density. The following day the transfection was carried out. […] Following this step, the Plus reagent/Optimem premix was added to all DNA samples followed by the Lipofectamine LTX/Optimem premix. The transfection mix was incubated for 5 min at room temperature and then carefully dropped on the cells. Generally, no media change was carried out. Cells were analysed two days following transfection.
# For flow cytometry, cells were detached, pelleted and resuspended in an appropriate volume of flow cytometry buffer (1% BSA in PBS, v/v). Cells were stained with Draq7 (Abcam, ab109202, f.c. 0.1 μM) as a live/dead stain and analysed using the BD LSRFortessa cell analyser (4 lasers, BD Bioscience).
row,Molecule,level of activity compared with full CMV
1,B1,activity at similar levels to CMV
2,B2,activity at similar levels to CMV
3,B3,activity at similar levels to CMV
4,B4,activity at similar levels to CMV
5,B5,activity at similar levels to CMV
6,B6,activity at similar levels to CMV
7,B7,activity at similar levels to CMV
